Source: paper PMC4973239, “Crystal structure of the human Tip41 orthologue, TIPRL, reveals a novel fold and a binding site for the PP2Ac C-terminus” (Scientific Reports, 2016)
No constants are given. Whether binding was seen depends on the method and setting. Binding seen in cells or lysates may run through a third protein. A result given as binding can be weak or reduced; the word gives no strength. Where a sequence is shown, tags or fusion partners need not be part of it.

By UniProt entry, the sequences of proteins in these tests, tags left out. Where a name states a change or a piece, a line headed by the entry shows the natural chain unless it says otherwise.
UniProt P67775: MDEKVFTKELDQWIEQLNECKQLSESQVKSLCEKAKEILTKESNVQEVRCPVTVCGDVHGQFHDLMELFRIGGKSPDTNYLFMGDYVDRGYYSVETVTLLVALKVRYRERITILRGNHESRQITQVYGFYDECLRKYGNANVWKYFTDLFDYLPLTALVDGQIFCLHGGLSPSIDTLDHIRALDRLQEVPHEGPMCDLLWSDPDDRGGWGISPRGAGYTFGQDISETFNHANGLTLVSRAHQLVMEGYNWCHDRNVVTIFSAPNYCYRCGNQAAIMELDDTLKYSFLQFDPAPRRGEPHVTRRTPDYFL

Experiments:
Assay in all cases: pull-down; GST pull-down; GST-PP2Ac and His-TIPRL co-expressed in E. coli BL21(DE3); cleared lysates on glutathione-sepharose beads, 1 h at 4 °C, PBS pH 7.4 with 0.5% IGEPAL CA-630, 1 mM DTT; Coomassie-stained SDS-PAGE
[1] = target: GST-tagged, full length PP2Ac ΔTPDYFL (UniProt P67775)
[2] = target: GST-tagged, full length PP2Ac Y307E (UniProt P67775)
[3] = target: GST-tagged PP2Ac (residues 210–309) (UniProt P67775)
[4] = target: GST-tagged PP2Ac (residues 210–309) Y307E (UniProt P67775)
[5] = target: GST-tagged PP2Ac (residues 210–309) ΔTPDYFL (UniProt P67775)

binding [1]: binds
binding [2]: binds
binding [3]: binds
binding [4]: binds
binding [5]: binds
B1: His-tagged, full length TIPRL (protein, UniProt O75663-1 1-272)
chain: MMIHGFQSSHRDFCFGPWKLTASKTHIMKSADVEKLADELHMPSLPEMMFGDNVLRIQHGSGFGIEFNATDALRCVNNYQGMLKVACAEEWQESRTEGEHSKEVIKPYDWTYTTDYKGTLLGESLKLKVVPTTDHIDTEKLKAREQIKFFEEVLLFEDELHDHGVSSLSVKIRVMPSSFFLLLRFFLRIDGVLIRMNDTRLYHEADKTYMLREYTSRESKISSLMHVPPSLFTEPNEISQYLPIKEAVCEKLIFPERIDPNPADSQKSTQVE
